In assay [1] the target is T1, VISTA expressed by Jurkat T cells (human (endogenous in Jurkat)) (UniProt Q9H7M9).
T1 sequence: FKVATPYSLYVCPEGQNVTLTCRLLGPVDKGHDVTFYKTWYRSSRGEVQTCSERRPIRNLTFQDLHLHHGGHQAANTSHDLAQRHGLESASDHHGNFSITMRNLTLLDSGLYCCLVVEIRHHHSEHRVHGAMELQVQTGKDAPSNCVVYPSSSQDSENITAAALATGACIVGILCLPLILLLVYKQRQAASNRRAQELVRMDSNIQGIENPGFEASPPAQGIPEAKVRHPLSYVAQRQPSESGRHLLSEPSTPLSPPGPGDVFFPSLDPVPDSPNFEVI
The assay can be described thus: co-IP; control wells: ELISA plates coated with anti-PD-L1 or anti-VISTA capture antibody, no recombinant protein; Jurkat T cell lysate loaded, 2 h at room temperature, extracted with glycine-HCl pH 2.0, Western blot of PD-1. For orientation: In western blotting, separated proteins are transferred to a membrane and probed.

The target in assay [2] is T2, carrier-free recombinant human VISTA (V-domain immunoglobulin-containing suppressor of T cell activation) (human) (UniProt Q9H7M9).
T2 sequence: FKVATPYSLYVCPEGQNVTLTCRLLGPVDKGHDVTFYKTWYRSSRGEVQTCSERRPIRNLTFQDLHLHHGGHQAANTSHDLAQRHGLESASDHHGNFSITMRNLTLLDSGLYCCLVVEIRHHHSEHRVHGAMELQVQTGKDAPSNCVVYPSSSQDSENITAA
The assay can be described thus: co-IP; ELISA plates coated with anti-PD-L1 or anti-VISTA capture antibody, 4 ng recombinant PD-L1 or VISTA immobilised on them; Jurkat T cell lysate loaded, 2 h at room temperature, washed with TBST, extracted with glycine-HCl pH 2.0, Western blot of PD-1; only the target purified.

Results are given in words; binding and its absence hold for the method and conditions named. Binding seen in cells or lysates may run through a third protein. Some binding calls cover weakened binding; strength is not graded here.

With “PD-1 of Jurkat T cells (programmed cell death protein 1) (from UniProt Q15116 25-288) (receptor)”, the binding entry in assay [1] is “binds weakly”; in assay [2], “binds”.

Source of the values: publication PMC12752518.
